Experimental data reported in the supplement of paper PMC10849652.
Some of the results follow.

Amino acid sequences for entries named in this document (tags omitted). A change or cut given only in a name is not applied to a line headed by its entry.
UniProt Q9BYN0: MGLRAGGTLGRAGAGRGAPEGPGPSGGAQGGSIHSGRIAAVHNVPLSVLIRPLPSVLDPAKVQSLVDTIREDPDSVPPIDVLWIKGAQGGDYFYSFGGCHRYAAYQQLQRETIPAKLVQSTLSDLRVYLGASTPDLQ
UniProt Q13586, whole entry, looked up: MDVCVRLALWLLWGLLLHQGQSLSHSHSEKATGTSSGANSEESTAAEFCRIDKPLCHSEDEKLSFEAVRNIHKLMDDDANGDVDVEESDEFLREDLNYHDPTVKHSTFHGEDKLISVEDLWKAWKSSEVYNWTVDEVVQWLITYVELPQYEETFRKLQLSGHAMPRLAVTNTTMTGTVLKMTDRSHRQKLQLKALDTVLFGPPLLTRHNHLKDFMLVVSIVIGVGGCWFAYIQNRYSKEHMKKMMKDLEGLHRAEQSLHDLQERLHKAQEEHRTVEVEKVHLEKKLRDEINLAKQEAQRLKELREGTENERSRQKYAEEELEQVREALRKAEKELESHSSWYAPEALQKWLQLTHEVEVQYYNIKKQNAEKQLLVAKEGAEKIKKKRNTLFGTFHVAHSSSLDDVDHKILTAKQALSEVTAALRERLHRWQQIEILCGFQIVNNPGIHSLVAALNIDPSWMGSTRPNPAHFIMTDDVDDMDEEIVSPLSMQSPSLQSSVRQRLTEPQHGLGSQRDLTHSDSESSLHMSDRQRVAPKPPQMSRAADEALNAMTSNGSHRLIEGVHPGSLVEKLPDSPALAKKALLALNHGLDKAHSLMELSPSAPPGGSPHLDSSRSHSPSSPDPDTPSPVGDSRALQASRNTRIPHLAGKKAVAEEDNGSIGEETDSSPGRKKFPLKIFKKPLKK
UniProt Q13242, whole entry, looked up: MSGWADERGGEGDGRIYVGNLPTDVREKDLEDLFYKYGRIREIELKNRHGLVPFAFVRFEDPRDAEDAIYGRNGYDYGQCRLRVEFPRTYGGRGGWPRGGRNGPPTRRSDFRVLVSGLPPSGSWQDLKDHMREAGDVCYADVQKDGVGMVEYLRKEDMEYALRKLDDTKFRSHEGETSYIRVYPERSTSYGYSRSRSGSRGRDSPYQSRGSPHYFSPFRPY
UniProt Q9UNL2: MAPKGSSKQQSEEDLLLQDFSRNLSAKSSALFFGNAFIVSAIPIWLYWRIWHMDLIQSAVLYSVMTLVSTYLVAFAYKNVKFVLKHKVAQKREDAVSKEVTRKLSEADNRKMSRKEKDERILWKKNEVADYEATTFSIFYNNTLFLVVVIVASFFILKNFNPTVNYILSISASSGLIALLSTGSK
UniProt Q9NQZ5: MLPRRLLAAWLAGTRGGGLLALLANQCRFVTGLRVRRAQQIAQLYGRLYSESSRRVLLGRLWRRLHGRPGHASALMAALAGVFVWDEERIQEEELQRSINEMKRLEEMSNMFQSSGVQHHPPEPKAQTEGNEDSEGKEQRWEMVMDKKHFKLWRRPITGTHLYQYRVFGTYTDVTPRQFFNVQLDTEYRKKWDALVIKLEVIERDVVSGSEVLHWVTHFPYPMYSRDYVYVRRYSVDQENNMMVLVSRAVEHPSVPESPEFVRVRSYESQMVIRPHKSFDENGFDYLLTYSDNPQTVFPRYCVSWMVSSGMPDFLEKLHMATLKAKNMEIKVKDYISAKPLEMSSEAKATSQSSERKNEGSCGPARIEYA
UniProt P52630: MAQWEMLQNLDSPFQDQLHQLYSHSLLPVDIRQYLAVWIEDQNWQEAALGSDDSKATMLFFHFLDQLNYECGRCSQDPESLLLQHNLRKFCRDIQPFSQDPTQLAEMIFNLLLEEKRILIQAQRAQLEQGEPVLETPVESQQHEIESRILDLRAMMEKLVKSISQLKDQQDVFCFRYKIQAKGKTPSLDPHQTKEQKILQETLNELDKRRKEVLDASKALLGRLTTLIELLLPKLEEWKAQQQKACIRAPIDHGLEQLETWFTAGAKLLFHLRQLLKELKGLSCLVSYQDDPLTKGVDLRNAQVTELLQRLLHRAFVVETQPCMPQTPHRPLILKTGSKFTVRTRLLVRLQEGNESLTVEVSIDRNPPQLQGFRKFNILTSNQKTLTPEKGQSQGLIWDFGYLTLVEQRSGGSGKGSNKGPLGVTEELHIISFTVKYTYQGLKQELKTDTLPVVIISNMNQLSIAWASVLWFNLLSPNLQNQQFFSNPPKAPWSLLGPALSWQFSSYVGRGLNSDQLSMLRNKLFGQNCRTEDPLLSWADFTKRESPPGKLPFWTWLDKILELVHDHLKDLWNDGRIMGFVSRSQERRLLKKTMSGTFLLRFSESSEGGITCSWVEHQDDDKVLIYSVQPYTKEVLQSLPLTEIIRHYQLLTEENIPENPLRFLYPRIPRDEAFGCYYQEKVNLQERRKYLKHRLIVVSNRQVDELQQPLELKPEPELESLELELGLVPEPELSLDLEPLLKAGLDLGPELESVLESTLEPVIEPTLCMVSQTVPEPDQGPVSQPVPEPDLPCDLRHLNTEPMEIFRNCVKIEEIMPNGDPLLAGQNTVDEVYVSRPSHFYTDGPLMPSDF
UniProt Q12772: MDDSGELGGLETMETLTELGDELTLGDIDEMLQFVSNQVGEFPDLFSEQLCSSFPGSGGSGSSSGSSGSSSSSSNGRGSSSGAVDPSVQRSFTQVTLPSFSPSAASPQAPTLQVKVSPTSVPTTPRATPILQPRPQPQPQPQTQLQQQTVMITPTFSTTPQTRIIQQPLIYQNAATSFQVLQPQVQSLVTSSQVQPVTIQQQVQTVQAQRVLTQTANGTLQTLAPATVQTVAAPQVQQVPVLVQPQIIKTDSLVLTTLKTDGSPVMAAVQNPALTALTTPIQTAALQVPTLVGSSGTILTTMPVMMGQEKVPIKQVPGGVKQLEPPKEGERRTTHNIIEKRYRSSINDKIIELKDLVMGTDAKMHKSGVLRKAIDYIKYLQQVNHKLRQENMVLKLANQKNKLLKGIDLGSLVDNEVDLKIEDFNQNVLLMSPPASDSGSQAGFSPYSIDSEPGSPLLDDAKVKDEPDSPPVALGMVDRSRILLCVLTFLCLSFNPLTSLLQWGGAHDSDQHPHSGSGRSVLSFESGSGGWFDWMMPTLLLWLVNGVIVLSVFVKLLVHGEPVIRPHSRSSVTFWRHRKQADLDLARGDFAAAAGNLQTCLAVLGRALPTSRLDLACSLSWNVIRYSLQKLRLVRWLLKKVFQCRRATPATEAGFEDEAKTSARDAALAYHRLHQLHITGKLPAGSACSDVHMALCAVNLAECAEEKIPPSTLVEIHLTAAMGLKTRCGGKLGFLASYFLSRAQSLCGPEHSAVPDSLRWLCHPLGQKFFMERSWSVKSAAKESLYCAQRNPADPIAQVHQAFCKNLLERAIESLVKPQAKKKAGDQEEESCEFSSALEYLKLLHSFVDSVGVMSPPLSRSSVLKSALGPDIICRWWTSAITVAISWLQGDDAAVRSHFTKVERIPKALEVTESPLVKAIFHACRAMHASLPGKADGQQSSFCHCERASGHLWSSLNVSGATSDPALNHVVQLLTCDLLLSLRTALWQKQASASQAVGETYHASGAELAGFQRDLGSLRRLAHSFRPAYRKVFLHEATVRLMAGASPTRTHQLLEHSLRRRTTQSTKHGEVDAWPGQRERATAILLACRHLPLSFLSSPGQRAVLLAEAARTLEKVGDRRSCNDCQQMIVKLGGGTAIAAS
UniProt Q9UQ35: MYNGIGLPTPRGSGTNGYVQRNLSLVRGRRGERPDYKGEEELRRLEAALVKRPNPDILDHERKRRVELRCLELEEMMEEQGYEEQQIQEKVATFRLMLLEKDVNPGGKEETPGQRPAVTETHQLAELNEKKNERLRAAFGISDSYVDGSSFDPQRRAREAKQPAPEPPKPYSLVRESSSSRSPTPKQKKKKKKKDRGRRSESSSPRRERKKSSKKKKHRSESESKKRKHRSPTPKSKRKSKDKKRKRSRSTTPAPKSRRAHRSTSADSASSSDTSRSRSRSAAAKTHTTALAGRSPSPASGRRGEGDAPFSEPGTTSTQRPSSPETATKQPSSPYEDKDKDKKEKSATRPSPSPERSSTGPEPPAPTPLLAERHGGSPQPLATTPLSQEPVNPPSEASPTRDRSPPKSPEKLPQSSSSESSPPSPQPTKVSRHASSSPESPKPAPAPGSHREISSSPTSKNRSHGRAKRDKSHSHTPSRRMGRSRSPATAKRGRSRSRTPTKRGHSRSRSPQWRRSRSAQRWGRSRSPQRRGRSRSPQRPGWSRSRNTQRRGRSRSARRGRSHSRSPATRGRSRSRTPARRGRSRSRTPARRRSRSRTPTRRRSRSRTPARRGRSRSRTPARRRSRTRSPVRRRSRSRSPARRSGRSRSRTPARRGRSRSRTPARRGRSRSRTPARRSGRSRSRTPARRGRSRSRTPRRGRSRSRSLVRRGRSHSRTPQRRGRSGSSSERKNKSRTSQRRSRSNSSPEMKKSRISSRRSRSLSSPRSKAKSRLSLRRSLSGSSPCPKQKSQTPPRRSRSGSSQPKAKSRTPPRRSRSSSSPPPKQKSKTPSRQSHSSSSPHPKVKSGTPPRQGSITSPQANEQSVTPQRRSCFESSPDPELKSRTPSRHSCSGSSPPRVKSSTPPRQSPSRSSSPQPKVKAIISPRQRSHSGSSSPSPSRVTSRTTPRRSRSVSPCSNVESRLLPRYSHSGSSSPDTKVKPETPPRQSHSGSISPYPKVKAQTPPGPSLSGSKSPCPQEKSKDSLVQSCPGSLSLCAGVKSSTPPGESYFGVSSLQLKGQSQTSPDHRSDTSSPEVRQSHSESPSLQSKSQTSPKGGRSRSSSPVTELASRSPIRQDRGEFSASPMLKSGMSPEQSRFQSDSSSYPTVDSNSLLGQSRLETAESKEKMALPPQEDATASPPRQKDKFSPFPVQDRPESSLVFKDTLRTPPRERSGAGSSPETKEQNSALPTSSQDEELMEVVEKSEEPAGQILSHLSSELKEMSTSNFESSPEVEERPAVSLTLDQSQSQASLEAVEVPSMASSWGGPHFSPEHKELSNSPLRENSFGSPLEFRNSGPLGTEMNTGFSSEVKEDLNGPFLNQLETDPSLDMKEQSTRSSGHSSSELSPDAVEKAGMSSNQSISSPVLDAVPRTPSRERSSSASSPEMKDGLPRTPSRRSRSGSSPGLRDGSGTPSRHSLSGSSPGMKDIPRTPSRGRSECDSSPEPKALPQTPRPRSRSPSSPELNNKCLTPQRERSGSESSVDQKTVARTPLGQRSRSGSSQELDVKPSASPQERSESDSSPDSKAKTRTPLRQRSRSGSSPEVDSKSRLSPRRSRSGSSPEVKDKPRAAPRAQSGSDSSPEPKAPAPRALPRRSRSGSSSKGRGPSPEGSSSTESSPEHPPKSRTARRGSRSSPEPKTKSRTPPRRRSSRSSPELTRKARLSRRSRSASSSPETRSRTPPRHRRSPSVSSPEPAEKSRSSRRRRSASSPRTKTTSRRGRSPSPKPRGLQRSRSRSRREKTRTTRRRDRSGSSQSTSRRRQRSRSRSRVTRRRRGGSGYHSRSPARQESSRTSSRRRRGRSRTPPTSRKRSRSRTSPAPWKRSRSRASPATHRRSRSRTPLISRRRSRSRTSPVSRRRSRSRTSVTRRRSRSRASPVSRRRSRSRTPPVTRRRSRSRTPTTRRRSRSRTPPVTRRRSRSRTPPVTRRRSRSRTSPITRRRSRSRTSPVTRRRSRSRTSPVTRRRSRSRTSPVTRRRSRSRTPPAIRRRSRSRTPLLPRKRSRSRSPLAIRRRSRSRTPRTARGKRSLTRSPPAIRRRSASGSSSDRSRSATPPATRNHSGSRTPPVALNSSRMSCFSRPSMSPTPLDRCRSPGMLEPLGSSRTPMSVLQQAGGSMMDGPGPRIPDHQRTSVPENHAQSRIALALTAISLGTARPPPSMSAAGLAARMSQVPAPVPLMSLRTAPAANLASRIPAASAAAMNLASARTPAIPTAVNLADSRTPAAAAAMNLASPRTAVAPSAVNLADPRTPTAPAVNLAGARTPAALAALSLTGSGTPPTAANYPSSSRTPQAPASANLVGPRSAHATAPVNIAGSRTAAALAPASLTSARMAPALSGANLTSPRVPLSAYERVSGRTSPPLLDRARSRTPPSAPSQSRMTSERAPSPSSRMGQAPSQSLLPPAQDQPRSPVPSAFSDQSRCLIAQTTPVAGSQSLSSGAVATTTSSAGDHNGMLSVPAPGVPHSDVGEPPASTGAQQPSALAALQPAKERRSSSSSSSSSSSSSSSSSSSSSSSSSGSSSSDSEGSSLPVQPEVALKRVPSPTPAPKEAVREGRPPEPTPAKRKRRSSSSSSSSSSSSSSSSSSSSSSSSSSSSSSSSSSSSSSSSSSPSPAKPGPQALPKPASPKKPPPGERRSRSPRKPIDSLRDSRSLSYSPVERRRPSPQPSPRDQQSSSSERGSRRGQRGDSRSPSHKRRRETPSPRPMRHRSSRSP
UniProt Q16629: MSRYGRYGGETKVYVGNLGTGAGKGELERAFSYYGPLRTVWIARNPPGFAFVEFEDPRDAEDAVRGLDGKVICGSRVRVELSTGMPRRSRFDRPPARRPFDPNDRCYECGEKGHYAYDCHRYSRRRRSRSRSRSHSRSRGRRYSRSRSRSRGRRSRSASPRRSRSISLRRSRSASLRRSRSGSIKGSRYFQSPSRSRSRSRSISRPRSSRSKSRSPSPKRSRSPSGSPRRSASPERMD

Columns and labels:
Experiment in all cases: log2 fold change, soluble protein after heating vs DMSO (PISA); higher = thermal stabilisation; K562 cells, 10 uM, 30 min; active = over 0.2 and 3.5 SD of the protein, either way, in both replicates (recomputed)
[1] = compound: CS(=O)(=O)c1ccc(-c2cnc(N)c(C(=O)Nc3ccccc3)n2)cc1
Outline: (§1)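 For each measurement, 10 μM compound was applied for 30 min to K562 cells at 2×10^6 cells/mL. Aliquots were heated for 3 min across 48°C-58°C, pooled, and extracted in PBS with 0.5% NP-40 at 4°C; the supernatant after 21,000xg for 90 min was soluble protein. This was quantified by TMTpro 16plex LC-MS/MS with channel sums equalised, and thermal stability was reported relative to control samples from duplicates, on a log2 fold-change scale.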

crizotinib = compound: C[C@@H](Oc1cc(-c2cnn(C3CCNCC3)c2)cnc1N)c1c(Cl)ccc(F)c1Cl [crizotinib]
Outline: as §1

[2] = compound: C[C@@H]1COCCN1C2=NC(=NC(=C2)C3(CC3)S(=O)(=O)C)C4=C5C=CNC5=CC=C4
Outline: as §1

[3] = compound: C[C@H](C1=CC=C(C=C1)C(=O)NC2=C3C=CNC3=NC=C2)N
Outline: as §1

gandotinib = compound: Cc1cc(Nc2cc(CN3CCOCC3)c3nc(C)c(Cc4ccc(Cl)cc4F)n3n2)n[nH]1 [gandotinib]
Outline: as §1

doramapimod = compound: Cc1ccc(-n2nc(C(C)(C)C)cc2NC(=O)Nc2ccc(OCCN3CCOCC3)c3ccccc23)cc1 [doramapimod]
Outline: as §1

ispinesib = compound: Cc1ccc(C(=O)N(CCCN)[C@@H](c2nc3cc(Cl)ccc3c(=O)n2Cc2ccccc2)C(C)C)cc1 [ispinesib]
Outline: as §1

[4] = compound: Cc1cc(SCc2sc(-c3ccc(C(F)(F)F)cc3)nc2C)ccc1OCC(=O)O
Outline: as §1

duvelisib = compound: C[C@H](Nc1ncnc2nc[nH]c12)c1cc2cccc(Cl)c2c(=O)n1-c1ccccc1 [duvelisib]
Outline: as §1

tozasertib = compound: Cc1cc(Nc2cc(N3CCN(C)CC3)nc(Sc3ccc(NC(=O)C4CC4)cc3)n2)n[nH]1 [tozasertib]
Outline: as §1

Measured: log2 fold change

SRXN1 (UniProt Q9BYN0)
inactive: [1] 0.009 | crizotinib -0.295 | [2] 0.09 | [3] -0.091 | gandotinib 0.01 | doramapimod 0.076 | ispinesib -0.16

SPECC1 (UniProt Q5M775)
inactive: [1] -0.104 | crizotinib -0.085 | [2] -0.02 | [3] 0.045 | gandotinib -0.18 | [4] -0.036 | doramapimod 0.137 | ispinesib -0.079

STIM1 (UniProt Q13586)
inactive: [1] 0.015 | crizotinib -0.07 | [2] 0.087 | [3] -0.028 | gandotinib -0.008 | [4] 0.057 | doramapimod 0.011 | ispinesib -0.233

SRSF9 (UniProt Q13242)
inactive: [1] -0.11 | crizotinib 0.058 | [2] -0.539 | [3] 0.389 | gandotinib 0.4 | [4] -0.048 | doramapimod 0.26 | ispinesib -0.255

SSR3 isoform 2 (UniProt Q9UNL2)
active: [3] -0.458
inactive: [1] 0.021 | crizotinib -0.043 | [2] 0.05 | gandotinib 0.281 | [4] -0.038 | doramapimod 0.034 | ispinesib 0.021

SPTBN1 (UniProt Q01082)
inactive: [1] 0.018 | crizotinib 0.042 | [2] 0.008 | [3] 0.039 | gandotinib -0.039 | [4] 0.094 | doramapimod 0.021 | ispinesib 0.03

SPR (UniProt P35270)
inactive: [1] -0.006 | crizotinib 0.125 | [2] 0.058 | [3] -0.059 | gandotinib 0.288 | [4] -0.025 | doramapimod -0.05 | ispinesib -0.103

SPATA31E1 (UniProt Q6ZUB1)
inactive: [1] 0.089 | crizotinib 0.156 | [3] 0.305 | duvelisib 0.32 | gandotinib 0.106 | [4] -0.139 | doramapimod 0.021 | ispinesib -0.068

STARD7 (UniProt Q9NQZ5)
inactive: [1] 0.023 | crizotinib -0.051 | [2] 0.045 | [3] -0.114 | gandotinib -0.168 | [4] 0.023 | doramapimod 0.021 | ispinesib -0.01

SRC isoform 2 (UniProt P12931)
inactive: [1] -0.248 | crizotinib -0.154 | [2] 0.229 | [3] 0.07 | gandotinib -0.056 | [4] 0.101 | doramapimod -0.052 | ispinesib -0.068

STAT2 (UniProt P52630)
inactive: [1] 0.125 | crizotinib -0.055 | [3] 0.248 | duvelisib -0.063 | gandotinib 0.068 | tozasertib -0.213 | [4] 0.161 | doramapimod 0.076 | ispinesib -0.632

Random excerpt: 2 entries already listed.
SPATA31E1 (UniProt Q6ZUB1)
inactive: [1] 0.089 | crizotinib 0.156 | [3] 0.305 | duvelisib 0.32 | gandotinib 0.106 | [4] -0.139 | doramapimod 0.021 | ispinesib -0.068

STAT2 (UniProt P52630)
inactive: [1] 0.125 | crizotinib -0.055 | [3] 0.248 | duvelisib -0.063 | gandotinib 0.068 | tozasertib -0.213 | [4] 0.161 | doramapimod 0.076 | ispinesib -0.632

Further records

SPG21 (UniProt Q9NZD8)
inactive: [1] 0.077 | crizotinib -0.24 | [2] 0.053 | [3] 0.013 | gandotinib 0 | [4] 0.052 | doramapimod 0.091 | ispinesib -0.093

SREBF2 (UniProt Q12772)
inactive: [1] 0.036 | crizotinib 0.027 | [2] 0.108 | doramapimod -0.069

STAT6 (UniProt P42226)
inactive: [1] -0.083 | crizotinib -0.037 | [2] 0.028 | [3] -0.011 | gandotinib -0.269 | [4] -0.123 | doramapimod 0.043 | ispinesib -0.033

SRR (UniProt Q9GZT4)
inactive: [1] -0.146 | crizotinib -0.05 | [2] 0.052 | duvelisib 0.068 | gandotinib -0.075 | tozasertib -0.03 | [4] 0.068 | doramapimod 0.022 | ispinesib -0.079

SRRM2 (UniProt Q9UQ35)
inactive: [1] -0.048 | crizotinib -0.246 | [2] 0.021 | [3] -0.255 | gandotinib -0.13 | [4] 0.012 | doramapimod 0.044 | ispinesib -0.131

SPAST (UniProt Q9UBP0)
inactive: [1] 0.002 | crizotinib -0.074 | [2] 0.043 | [3] 0.001 | gandotinib -0.025 | [4] 0.15 | doramapimod -0.078 | ispinesib -0.001

STAT5A (UniProt P42229)
inactive: [1] 0.02 | crizotinib -0.002 | [2] 0.08 | [3] -0.036 | gandotinib -0.033 | [4] 0.14 | doramapimod -0.047 | ispinesib 0.275

SPTBN4 (UniProt Q9H254)
inactive: [1] 0.026 | crizotinib 0.09 | [2] -0.024 | [3] 0.098 | gandotinib -0.03 | [4] -0.003 | doramapimod -0.03 | ispinesib 0.06

STAT3 (UniProt P40763)
inactive: [1] 0.059 | crizotinib -0.126 | [2] 0.105 | [3] -0.063 | gandotinib -0.184 | [4] 0.088 | doramapimod -0.009 | ispinesib -0.03

STARD3NL (UniProt O95772)
inactive: [1] -0.011 | [2] 0.055 | [3] -0.067 | gandotinib -0.14 | [4] -0.058 | doramapimod 0.063 | ispinesib -0.256
active: crizotinib -0.448

SPCS2 (UniProt Q15005)
inactive: [1] 0.032 | crizotinib 0.001 | [2] 0.02 | [3] -0.036 | gandotinib -0.007 | [4] -0.013 | doramapimod 0.047 | ispinesib 0.085

SPINDOC (UniProt Q9BUA3)
inactive: [1] 0.09 | crizotinib 0.104 | [2] -0.059 | [3] -0.074 | gandotinib -0.001 | [4] 0.053 | doramapimod 0.097 | ispinesib -0.008

SRSF7 (UniProt Q16629)
inactive: [1] -0.096 | crizotinib 0.008 | [2] -0.311 | [3] 0.045 | gandotinib 0.319 | [4] -0.025 | doramapimod 0.073 | ispinesib -0.089

SRSF4 (UniProt Q08170)
inactive: [1] -0.055 | crizotinib 0.011 | [2] -0.248 | [3] 0 | gandotinib 0.077 | [4] 0.031 | doramapimod 0.073 | ispinesib -0.021

SRP72 (UniProt O76094)
inactive: [1] 0.021 | crizotinib -0.121 | [2] -0.017 | [3] 0.167 | gandotinib -0.08 | [4] 0.154 | doramapimod 0.051 | ispinesib -0.185
